# Experimental data reported in PubChem BioAssay AID2685 (National Center for Advancing Translational Sciences (NCATS), 2010).
# Some of the results follow. The main result of the screen is listed elsewhere. These columns were measured beside it and carry no call. Compounds called inactive in the main read-out are mostly missing here. The note in brackets gives the kind of curve behind each potency; many fits are weak.
# Assay: qHTS Assay for Lipid Storage Modulators in Drosophila S3 Cells;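 for cell number change: cells counted by Cell Tracker Red CMTPX staining in the red channel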
# Settings: BODIPY lipid droplet fluorescence, 18-24 h; for cell number change: measured here: cell count max response, cells fed with added oleic acid
# How it was run: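 Laser-scanning cytometry quantifies lipid droplet accumulation (500–530 nm total intensity; droplet/cell object ratio) in oleic acid-fed (400 uM added) Drosophila S3 cells treated with a concentration series. 20 uM Triacsin C defined 100% inhibition.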
# [1] = measured here: cell number channel AC50, cells fed with added oleic acid
# [2] = measured here: lipid fluorescence (Fed channel) AC50, cells fed with added oleic acid
Compound,cell number change [%],AC50 [1],AC50 [2]
CC(C)(C)C(=O)Cn1ncc(Br)c(Br)c1=O,-37.1,"3.66 µM [falling, full curve]",
Cc1ccc(C23CC4CC(CC(C(N)=O)(C4)C2)C3)cc1,-18.6,,
COCC1CCN(C(=O)C2CCC(=O)N(C3CCCC3)C2)CC1 (configuration not stated),0.612,,"4.11 µM [falling, single point]"
COC(=O)[C@@H](NC(=O)O[C@H]1C(=O)c2ccc(OC)cc2O[C@@H]1c1ccc2c(c1)OCO2)C(C)C,22.6,,"1.03 µM [rising, full curve]"
O=C(NNc1ccccc1[N+](=O)[O-])Nc1ccc(Cl)c(Cl)c1,0.334,,
CC1CCC(NC(=O)C(NS(=O)(=O)c2cccc3nsnc23)C(C)C)CC1 (configuration not stated),-54,"29.1 µM [falling, single point]",
Cc1ccc(OCc2nnc(N)s2)cc1,1.74,,
COc1ccc(NS(=O)(=O)c2ccc(O)c(NC(=O)c3cc4c(C)nn(-c5ccc(F)cc5)c4s3)c2)cc1,-78.4,"29.1 µM [falling, single point]","18.4 µM [falling, single point]"
OC(COc1ccc2c(c1)CCC2)CN1CCN(c2ccccc2F)CC1 (configuration not stated),-198,,"0.00517 µM [falling, full curve, poor fit]"
Cc1c(Cl)cccc1NC(=O)CNC(=O)CCCc1nc2ccccc2c(=O)[nH]1,,"6.51 µM [rising, single point]",
O=C(CN1CCN(S(=O)(=O)N2CCCCC2)CC1)Nc1ccc(Br)cc1,-14.1,,"1.16 µM [falling, partial curve, poor fit]"
C/C=C(/C)C(=O)Nc1cccc(C2=NOC3(C2)C[C@@H](C(N)=O)N(C(=O)c2ccc(OC)cc2)C3)c1 (some centres not stated),17.7,,
O=[N+]([O-])c1cccc(CSc2cccc[n+]2[O-])c1,-25.5,"0.58 µM [falling, full curve, poor fit]",
COCCC(=O)N1CCCC(CCC(=O)NCc2ccc(F)c(F)c2)C1 (configuration not stated),14.6,,"3.66 µM [falling, single point]"
O=C(c1ccccn1)N1CCCC(N2CCN(c3cccc(C(F)(F)F)c3)CC2)C1 (configuration not stated),,,"0.58 µM [falling, single point]"
Clc1cccc(Cl)c1C[n+]1ccc2ccccc2c1,-25.3,,
Cc1nc2cccnc2nc1C,10.6,,"0.651 µM [rising, partial curve, poor fit]"
Cc1ccc(-n2nnnc2SCC(=O)Nc2sccc2C#N)cc1,,,"20.6 µM [rising, single point]"
c1cnc2nc(CSc3ncn[nH]3)cn2c1,-35.8,,
CCn1cc(C(=O)NN)c(=O)c2cc(F)c(N3CCCCC3)cc21,-23.6,,
CC1Cc2ccccc2N1C(=O)CN(C)CC(=O)Nc1ccc(OC(F)(F)F)cc1 (configuration not stated),-30.3,"29.1 µM [falling, single point]",

Compound,cell number change [%],AC50 [1],AC50 [2]
O=C(CSc1ccc(-c2cccs2)nn1)NCCc1ccccc1,30.3,"13 µM [rising, partial curve, poor fit]","7.31 µM [rising, partial curve]"
COc1cccc(NC(=O)CN(C)C(=O)CCNC(=O)c2ccccc2Cl)c1,26.4,,"7.31 µM [rising, partial curve, poor fit]"
Cc1csc(NC(=O)CN(C)S(=O)(=O)c2cccc3cccnc23)n1,,"0.92 µM [rising, partial curve]","1.46 µM [rising, partial curve]"
Cc1cc(NC(=O)c2ccc3c(c2)C(=O)N(C2CCCCC2)C3=O)no1,-1.02,,"16.4 µM [falling, partial curve]"
CCOc1ccccc1NC(=O)C(OC(=O)c1cc(C)oc1C)c1ccccc1 (configuration not stated),5.65,,"2.06 µM [falling, single point]"
O=C(NCc1nc(-c2ccc(Cl)cc2)no1)c1ccco1,-13.2,,"2.06 µM [falling, partial curve]"
Cc1cccc(OCCCn2c(CO)nc3ccccc32)c1,25.5,,"2.91 µM [rising, full curve]"
CCCCOC(=O)c1ccc(NC(=O)CSCc2n[nH]c(=O)[nH]2)cc1,,,"0.146 µM [rising, partial curve, poor fit]"
COc1ccccc1C(=O)Nc1ccnn1C1CCN(C(=O)c2cnsn2)CC1,-6.58,,"16.4 µM [falling, single point]"
CN1c2ccccc2-c2nc3ccccc3n2C1c1ccco1 (configuration not stated),-17.5,,"0.13 µM [rising, full curve, poor fit]"
Cc1ccccc1C(=O)Nc1nnc(-c2ccco2)o1,59.7,"3.26 µM [falling, single point]","4.11 µM [falling, single point]"
CC(C)COc1ncnc2c1sc1nc3c(cc12)COC(C)(C)C3,-4.44,,"0.13 µM [falling, full curve, poor fit]"
O=C(c1cc2c(s1)CCC2)N1CCN(c2ccccc2)CC1,29.3,"2.91 µM [rising, full curve, poor fit]",
CSc1ccc(NS(=O)(=O)c2ccc(-n3cnnn3)cc2)cc1,-10.3,,
O=C1c2cccc3cccc(c23)C(=O)N1CCCSc1ncn[nH]1,27.2,,
CC(C)N(Cc1nc(-c2ccccc2)no1)C(=O)C1CCCCC1,101,"13 µM [rising, partial curve]","16.4 µM [rising, partial curve]"
CCN(c1ccccc1)S(=O)(=O)c1cc(C(=O)Nc2ccc(Br)cc2)ccc1F,1.23,,"3.26 µM [rising, partial curve, poor fit]"
Cc1ccc(C2(C)NC(=O)N(CC(=O)N(Cc3ccccc3)C(C)(C)C)C2=O)cc1 (configuration not stated),4.17,,"0.116 µM [rising, full curve, poor fit]"
Cc1cc(C(=O)N(C)C2CCCCC2)no1,15.8,"0.731 µM [rising, full curve, poor fit]",
COc1ccc(CCN(C(=O)c2snc(C(N)=O)c2N)C(C)C(=O)NC2CCCCC2)cc1OC (configuration not stated),-6.41,,

# Reformatted as tab-separated lines: 10 of the compounds above
Compound	cell number change [%]	AC50 [1]	AC50 [2]
COc1cccc(NC(=O)CN(C)C(=O)CCNC(=O)c2ccccc2Cl)c1	26.4		7.31 µM [rising, partial curve, poor fit]
Cc1csc(NC(=O)CN(C)S(=O)(=O)c2cccc3cccnc23)n1		0.92 µM [rising, partial curve]	1.46 µM [rising, partial curve]
O=C(NCc1nc(-c2ccc(Cl)cc2)no1)c1ccco1	-13.2		2.06 µM [falling, partial curve]
Cc1cccc(OCCCn2c(CO)nc3ccccc32)c1	25.5		2.91 µM [rising, full curve]
CCCCOC(=O)c1ccc(NC(=O)CSCc2n[nH]c(=O)[nH]2)cc1			0.146 µM [rising, partial curve, poor fit]
COc1ccccc1C(=O)Nc1ccnn1C1CCN(C(=O)c2cnsn2)CC1	-6.58		16.4 µM [falling, single point]
CN1c2ccccc2-c2nc3ccccc3n2C1c1ccco1 (configuration not stated)	-17.5		0.13 µM [rising, full curve, poor fit]
O=C(c1cc2c(s1)CCC2)N1CCN(c2ccccc2)CC1	29.3	2.91 µM [rising, full curve, poor fit]	
CCN(c1ccccc1)S(=O)(=O)c1cc(C(=O)Nc2ccc(Br)cc2)ccc1F	1.23		3.26 µM [rising, partial curve, poor fit]
Cc1ccc(C2(C)NC(=O)N(CC(=O)N(Cc3ccccc3)C(C)(C)C)C2=O)cc1 (configuration not stated)	4.17		0.116 µM [rising, full curve, poor fit]
